Test results published in patent publication US4638070A, “Heterocyclic amino-alcohol derivatives” (Continental Pharma, priority 1980, dated 1987).
The name of at least one read-out is uncertain.

What follows are molecules tested on unanaesthetized, hypertension-suffering rat (assay: Antihypertensive activity (systolic arterial pressure), oral). Details: 60 mg/kg, hypertensive rat, 3 hours.
Assay type: in vivo
Description: (2) The antihypertensive activity was measured on unanaesthetized, hypertension-suffering rat. The tested substances were orally given at a rate of 60 mg/kg. The systolic arterial pressure was measured every 30 minutes for 2 hours before and for 3 hours after the tested product was given. Results are expressed as follows: […]
O: no reduction of arterial pressure.
+: reduction lower than 10 mm Hg.
++: reduction of 10 to 20 mm Hg.
+++: reduction higher than 20 mm Hg.

**Q.** For `CCCCCCCCN[C@@H](C)[C@@H](O)c1ccc2c(c1)CCCS2` (relative stereo) [No 127], which “ANTIHYPERTENSIVE ACTIVITY” value is on record?
**A.** Its value is 0.

**Q.** How did the “ANTIHYPERTENSIVE ACTIVITY” value turn out when `CCCCCCCCNC(C)C(O)c1ccc2c(c1)CCC(C)S2` (centres unmarked) [No 4] was run?
**A.** Its value is 0.

**Q.** With `CC(NCCCCCc1ccccc1)C(O)c1ccc2c(c1)CCCS2` (centres unmarked) [No 8] as the molecule, how does the “ANTIHYPERTENSIVE ACTIVITY” value read?
**A.** The value was 0.

**Q.** With `CC1CCc2cc(C(O)C(C)NCCc3ccccc3)ccc2S1` (centres unmarked) [No 9] as the molecule, how does the “ANTIHYPERTENSIVE ACTIVITY” value read?
**A.** Its value is 0.

**Q.** How did the “ANTIHYPERTENSIVE ACTIVITY” value turn out when `CC(NCCc1ccccc1)C(O)c1ccc2c(c1)CCCS2` (centres unmarked) [No 13] was run?
**A.** The value was 0.

**Q.** `CC(NCCc1ccccc1)C(O)c1ccc2c(c1)CCCCS2` (centres unmarked) [No 14] was tested. Which “ANTIHYPERTENSIVE ACTIVITY” value did it give?
**A.** The value was 0.

**Q.** Which “ANTIHYPERTENSIVE ACTIVITY” value does the source give for `CC(NCC(c1ccccc1)c1ccccc1)C(O)c1ccc2c(c1)CCCS2` (centres unmarked) [No 21] here?
**A.** Its value is 0.

**Q.** With `COc1ccc(CCNC(C)C(O)c2ccc3c(c2)CCCS3)cc1OC` (centres unmarked) [No 22] as the molecule, how does the “ANTIHYPERTENSIVE ACTIVITY” value read?
**A.** Its value is 0.

**Q.** For `CC(NCCCCOc1ccccc1)C(O)c1ccc2c(c1)CCCS2` (centres unmarked) [No 24], which “ANTIHYPERTENSIVE ACTIVITY” value is on record?
**A.** The value was 0.

**Q.** With `CC(NCCCCSc1ccccc1)C(O)c1ccc2c(c1)CCCS2` (centres unmarked) [No 25] as the molecule, how does the “ANTIHYPERTENSIVE ACTIVITY” value read?
**A.** The value was 0.

**Q.** With `CC(NC1CCCCCCC1)C(O)c1ccc2c(c1)CCCS2` (centres unmarked) [No 27] as the molecule, how does the “ANTIHYPERTENSIVE ACTIVITY” value read?
**A.** Its value is 0.

**Q.** For `CC(NC1CCCCCCC1)C(O)c1ccc2c(c1)CCS2` (centres unmarked) [No 28], which “ANTIHYPERTENSIVE ACTIVITY” value is on record?
**A.** The value was 0.

**Q.** How did the “ANTIHYPERTENSIVE ACTIVITY” value turn out when `CC(NCCCCSc1ccccc1)C(O)c1ccc2c(c1)CCS2` (centres unmarked) [No 31] was run?
**A.** The value was 0.

**Q.** For `CC(C)NC(C)C(O)c1ccc2c(c1)CCS2` (centres unmarked) [No 33], which “ANTIHYPERTENSIVE ACTIVITY” value is on record?
**A.** The value was 0.

**Q.** With `CC(NC1CCCCC1)C(O)c1ccc2c(c1)CCCS2` (centres unmarked) [No 41] as the molecule, how does the “ANTIHYPERTENSIVE ACTIVITY” value read?
**A.** Its value is 0.

**Q.** For `CCCCCCCCNC(C)C(O)c1ccc2c(c1)CC(C)CS2` (centres unmarked) [No 43], which “ANTIHYPERTENSIVE ACTIVITY” value is on record?
**A.** The value was 0.

**Q.** How did the “ANTIHYPERTENSIVE ACTIVITY” value turn out when `CC(NCCOCc1ccccc1)C(O)c1ccc2c(c1)CCCS2` (centres unmarked) [No 46] was run?
**A.** The value was 0.

**Q.** How did the “ANTIHYPERTENSIVE ACTIVITY” value turn out when `CCCCOCCCNC(C)C(O)c1ccc2c(c1)CCCS2` (centres unmarked) [No 50] was run?
**A.** The value was 0.

**Q.** How did the “ANTIHYPERTENSIVE ACTIVITY” value turn out when `CC(NC1CC1)C(O)c1ccc2c(c1)CCCS2` (centres unmarked) [No 51] was run?
**A.** Its value is 0.

**Q.** With `CC(NC12CC3CC(CC(C3)C1)C2)C(O)c1ccc2c(c1)CCCS2` (centres unmarked) [No 52] as the molecule, how does the “ANTIHYPERTENSIVE ACTIVITY” value read?
**A.** Its value is 0.

**Q.** How did the “ANTIHYPERTENSIVE ACTIVITY” value turn out when `COc1ccc(OCCNC(C)C(O)c2ccc3c(c2)CCCS3)cc1` (centres unmarked) [No 53] was run?
**A.** The value was 0.

**Q.** Which “ANTIHYPERTENSIVE ACTIVITY” value does the source give for `CC(NCCCN1CCNC1=O)C(O)c1ccc2c(c1)CCCS2` (centres unmarked) [No 56] here?
**A.** The value was 0.

**Q.** For `CC(NCCCN1CCCC1)C(O)c1ccc2c(c1)CCCS2` (centres unmarked) [No 59], which “ANTIHYPERTENSIVE ACTIVITY” value is on record?
**A.** Its value is 0.

**Q.** With `CC1Cc2cc(C(O)C(C)NCCCN3CCCC3)ccc2O1` (centres unmarked) [No 62] as the molecule, how does the “ANTIHYPERTENSIVE ACTIVITY” value read?
**A.** Its value is 0.

**Q.** Which “ANTIHYPERTENSIVE ACTIVITY” value does the source give for `COc1ccc(OCCNC(C)C(O)c2ccc3c(c2)CC(C)S3)cc1` (centres unmarked) [No 66] here?
**A.** The value was 0.

**Q.** For `CCCCOCCOCCCNC(C)C(O)c1ccc2c(c1)CCCS2` (centres unmarked) [No 72], which “ANTIHYPERTENSIVE ACTIVITY” value is on record?
**A.** The value was 0.

**Q.** Which “ANTIHYPERTENSIVE ACTIVITY” value does the source give for `COC(=O)CCCCCCCCCCNC(C)C(O)c1ccc2c(c1)CCCS2` (centres unmarked) [No 73] here?
**A.** The value was 0.

**Q.** `CC(NCCCN1CCCC1=O)C(O)c1ccc2c(c1)CCCS2` (centres unmarked) [No 77] was tested. Which “ANTIHYPERTENSIVE ACTIVITY” value did it give?
**A.** The value was 0.

**Q.** `Cc1ccc(OCCNC(C)C(O)c2ccc3c(c2)CC(C)S3)cc1` (centres unmarked) [No 79] was tested. Which “ANTIHYPERTENSIVE ACTIVITY” value did it give?
**A.** Its value is 0.

**Q.** Which “ANTIHYPERTENSIVE ACTIVITY” value does the source give for `CC(CCCc1ccccc1)NC(C)C(O)c1ccc2c(c1)CC(C)O2` (centres unmarked) [No 82] here?
**A.** The value was 0.

**Q.** `CC(NCCOc1ccc2c(c1)CCC2)C(O)c1ccc2c(c1)CCCS2` (centres unmarked) [No 83] was tested. Which “ANTIHYPERTENSIVE ACTIVITY” value did it give?
**A.** The value was 0.

**Q.** Which “ANTIHYPERTENSIVE ACTIVITY” value does the source give for `CC(=O)Nc1ccc(OCCNC(C)C(O)c2ccc3c(c2)CCCS3)cc1` (centres unmarked) [No 87] here?
**A.** Its value is 0.

**Q.** How did the “ANTIHYPERTENSIVE ACTIVITY” value turn out when `CC(NCCOc1ccc2ccccc2c1)C(O)c1ccc2c(c1)CCCS2` (centres unmarked) [No 88] was run?
**A.** The value was 0.

**Q.** Which “ANTIHYPERTENSIVE ACTIVITY” value does the source give for `CC(NCCCCc1ccccc1)C(OC(=O)C(C)(C)C)c1ccc2c(c1)CCS2` (centres unmarked) [No 99] here?
**A.** Its value is 0.

**Q.** With `CC(NCCOc1ccc(NS(C)(=O)=O)cc1)C(O)c1ccc2c(c1)CCS2` (centres unmarked) [No 103] as the molecule, how does the “ANTIHYPERTENSIVE ACTIVITY” value read?
**A.** The value was 0.

**Q.** `CC(NCCOc1ccc(C(C)(C)C)cc1)C(O)c1ccc2c(c1)CCCS2` (centres unmarked) [No 107] was tested. Which “ANTIHYPERTENSIVE ACTIVITY” value did it give?
**A.** The value was 0.

**Q.** How did the “ANTIHYPERTENSIVE ACTIVITY” value turn out when `COC(=O)c1ccc(OCCNC(C)C(O)c2ccc3c(c2)CCCS3)cc1` (centres unmarked) [No 114] was run?
**A.** The value was 0.

**Q.** Which “ANTIHYPERTENSIVE ACTIVITY” value does the source give for `CCCCCCCCNC(CC)C(O)c1ccc2c(c1)CCS2` (centres unmarked) [No 119] here?
**A.** The value was 0.

**Q.** Which “ANTIHYPERTENSIVE ACTIVITY” value does the source give for `CCCCCCCCNC(C)C(O)c1ccc2c(c1)SCCO2` (centres unmarked) [No 121] here?
**A.** The value was 0.

**Q.** For `CCCCSCCCNC(C)C(O)c1ccc2c(c1)SCCO2` (centres unmarked) [No 124], which “ANTIHYPERTENSIVE ACTIVITY” value is on record?
**A.** The value was 0.

**Q.** With `CCCCSCCCNC(C)C(O)c1ccc2c(c1)CCS2` (centres unmarked) [No 125] as the molecule, how does the “ANTIHYPERTENSIVE ACTIVITY” value read?
**A.** The value was 0.

**Q.** `CCCCCCCCNC(C)C(OC(=O)CCCCCCC)c1ccc2c(c1)CCCS2` (centres unmarked) [No 136] was tested. Which “ANTIHYPERTENSIVE ACTIVITY” value did it give?
**A.** Its value is 0.

**Q.** `CCCCCCCCCCCCCCCCCCNC(C)C(O)c1ccc2c(c1)CCCS2` (centres unmarked) [No 147] was tested. Which “ANTIHYPERTENSIVE ACTIVITY” value did it give?
**A.** The value was 0.

**Q.** With `CCCCCCCCCCCCNC(C)C(O)c1ccc2c(c1)CCCS2` (centres unmarked) [No 149] as the molecule, how does the “ANTIHYPERTENSIVE ACTIVITY” value read?
**A.** The value was 0.

**Q.** `CCCCCCCCNC(C)C(O)c1ccc2c(c1)CCCC2` (centres unmarked) [No 170] was tested. Which “ANTIHYPERTENSIVE ACTIVITY” value did it give?
**A.** The value was 0.

**Q.** With `CC(CCCc1ccccc1)NC(C)C(O)c1ccc2c(c1)CCC2` (centres unmarked) [No 173] as the molecule, how does the “ANTIHYPERTENSIVE ACTIVITY” value read?
**A.** Its value is 0.

**Q.** `CC(NCCOc1ccc(C(C)(C)C)cc1)C(O)c1ccc2c(c1)CCC2` (centres unmarked) [No 176] was tested. Which “ANTIHYPERTENSIVE ACTIVITY” value did it give?
**A.** The value was 0.
